Source: article doi:10.1101/855098
No constants are given. Whether binding was seen depends on the method and setting. Some entries that bind do so weakly or less than the wild type.

Target: T1, MKK3 (Arabidopsis), O80396
T1 chain: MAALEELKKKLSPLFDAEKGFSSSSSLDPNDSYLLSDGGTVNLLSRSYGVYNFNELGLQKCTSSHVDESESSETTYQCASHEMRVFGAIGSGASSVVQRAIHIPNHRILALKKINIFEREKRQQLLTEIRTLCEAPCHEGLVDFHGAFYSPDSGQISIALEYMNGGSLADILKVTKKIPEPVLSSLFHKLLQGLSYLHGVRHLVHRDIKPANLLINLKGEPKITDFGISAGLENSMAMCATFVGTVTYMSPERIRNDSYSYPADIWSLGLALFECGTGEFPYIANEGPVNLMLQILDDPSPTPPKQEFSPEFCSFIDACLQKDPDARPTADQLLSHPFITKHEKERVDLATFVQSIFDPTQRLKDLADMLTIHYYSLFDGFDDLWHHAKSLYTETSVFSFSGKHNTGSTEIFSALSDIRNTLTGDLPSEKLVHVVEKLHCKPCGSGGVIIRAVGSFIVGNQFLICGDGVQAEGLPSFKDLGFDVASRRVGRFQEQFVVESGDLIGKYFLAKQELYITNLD
Experiment: two-hybrid
Conditions: remark: other sources report otherwise

- binding: binds
B1: MAP3K18, Q9ZVP5 1-339 (enzyme)
chain: MNWTRGKTLGRGSTATVSAATCHESGETLAVKSAEFHRSEFLQREAKILSSLNSPYVIGYRGCEITREPFHNNGEATTYSLLMEYAPYGTLTDVATKNGGFIDEARVVKYTRQILLGLEYIHNSKGIAHCDIKGSNVLVGENGEAKIADFGCAKWVEPEITEPVRGTPAFMAPEAARGERQGKESDIWAVGCTVIEMVTGSQPWIGADFTDPVSVLYRVGYLGELPELPCSLTEQAKDFLGKCLKKEATERWTASQLLNHPFLVNKEPELVTGLVTNSPTSVTDQMFWRSVEEEVSEDRSSWWECHEDERIGVLSWIGHVVVESTWDLDGEDWITVRRN
